For some assays here: HELM strings list residues between dots; [ac] is acetyl, [am] amide, other brackets name non-standard units. [ ]: non-standard residue; d: D form. The star is where a group is joined. Boc = CC(C)(C)OC(=O)*

The first data set can be described thus: peptide synthesis. As to conditions: coupling step, HOAc salt.
On to Boc-Y[dA]FM-OMe, for which the step yield was 80%.

A short description of another data set: general procedure: peptide synthesis; benzhydrylamine resin; hydroxymethylpolystyrene-divinylbenzene (1% crosslinked); DCC/HOSu (solution); dicyclohexylcarbodiimide. As to conditions: late stage modification step, HOAc.
In turn, PEPTIDE1{Y.[dA].F.M.[OMe]}$$$$V2.0 yielded a step yield of 68%.

Consider PEPTIDE1{Y.[dA].F.[Met-ol]}$$$$V2.0, for which the step yield came to 82%.

The substance PEPTIDE1{Y.[dA].F.M.[NHEtOH]}$$$$V2.0 registered a step yield of 64%.

For PEPTIDE1{Y.[dA].F.M.[NHEt]}$$$$V2.0, the step yield came to 53%.

With PEPTIDE1{Y.[dA].F.M.[am]}$$$$V2.0, the step yield worked out at 66%.

Staying with this data set, now noted: late stage modification step, HOAc salt.
On to Boc-Tyr-DAla-Phe-Met(O)-ol, for which the step yield was 80%.

As for Boc-Y[dA]FM-NH2, the step yield worked out at 97%.

Consider Boc-Tyr-DAla-Phe-Met-NHCH2 CH3, for which the step yield is listed as 92%.

As for Boc-Tyr-DAla-Phe-Methioninol, the step yield was found to be 93%.

For PEPTIDE1{Y.[dA].F.[Met(O)-ol]}$$$$V2.0, the step yield was 79%.

Boc-Tyr-DAla-Phe-Met-NHCH2CH2 OH: the step yield was 97%.

As for Boc-Y[dA]FM-OH, the step yield amounted to 57%.

On to PEPTIDE1{Y.[dA].F.M}$$$$V2.0, for which the step yield was 60%.
